This passage reports step yield results from US8785384B2 (Chemical & Biopharmaceutical Laboratories of Patras, priority 2010, dated 2014).

The data set can be described thus: general procedure: Fmoc solid-phase peptide synthesis; 2-chlorotrityl chloride (CTC) resin or 4-methylbenzhydryl (MBH) resin. The settings on record: late stage modification step, trifluoroacetic acid salt.

For the substance “RLX1B (B-chain SEQ ID NO: 3) (KWKDDVIKLCGRELVRAQIAICGMSTWS; listed as Homo sapiens)”, the step yield amounted to 62%.
